Results as given in US11981675B1, “Pyrrolo[3,2-C]quinoline-2,3-dione compounds as CK2 inhibitors” (KING FAISAL UNIVERSITY, priority 2023, dated 2024).

Assays:
Assay type in all cases: cell-based
HCT116 (colon) = test: In vitro cytotoxic activity assay (MTT), HCT116; details: Homo sapiens, HCT-116; HCT116 (colon) cells, exposed for 96 hours; read-out: Cytotoxicity activity IC50 (50% inhibition of cell proliferation)
Method: (§1) Compounds 1-16 were screened for their in vitro cytotoxic activity utilizing a 3-(4,5-dimethyl-thiazol-2-yl)-2,5-diphenyltetrazolium bromide (MTT) assay against selected cancer human cell lines consisting of PC3 (prostate), HCT116 (colon), A375 (melanoma), H1299 (lung), MIAPaCa-2 (pancreas), HL60 (leukemia), MCF7 (breast), MDA-MB-231 (breast) (T. Mosmann, J. Immunol. Meth., 1983, 65, 55-63). The cells were cultured at 37° C. in RMPI1640 medium supplemented with 10% fetal bovine serum, 50 IU/mL penicillin, and 50 μg/mL streptomycin in a 5% CO2 incubator. All cells were sub-cultured 3 times/week by trypsinisation. Viable cells were seeded and allowed to adhere for 12 h before a test drug was added in 96-well plates at an initial density of 1.0×10^5 cells/mL. Tumor cell lines were separately exposed to various concentrations of the tested compounds followed by incubation at a temperature of 37° C. during 96 hours inside a medium of fresh RMPI 1640. Cells were subsequently incubated at 37° C. using MTT at 0.5 mg/mL during 4 hours. After removal of supernatant, formazan crystals were dissolved in isopropanol and the optical density was measured at 570 nm. CX-4945 was used as a positive control.

PC3 (prostate) = test: In vitro cytotoxic activity assay (MTT), PC3; details: Homo sapiens, Prostate cell; PC3 (prostate) cells, exposed for 96 hours; read-out: Cytotoxicity activity IC50 (50% inhibition of cell proliferation)
Method: as §1

MIAPaCa-2 (pancreas) = test: In vitro cytotoxic activity assay (MTT), MIAPaCa-2; details: Homo sapiens, MIA PaCa-2; MIAPaCa-2 (pancreas) cells, exposed for 96 hours; read-out: Cytotoxicity activity IC50 (50% inhibition of cell proliferation)
Method: as §1

A375 (melanoma) = test: In vitro cytotoxic activity assay (MTT), A375; details: Homo sapiens, A-375; A375 (melanoma) cells, exposed for 96 hours; read-out: Cytotoxicity activity IC50 (50% inhibition of cell proliferation)
Method: as §1

MDA-MB-231 (breast) = test: In vitro cytotoxic activity assay (MTT), MDA-MB-231; details: Homo sapiens; MDA-MB-231 (breast) cells, exposed for 96 hours; read-out: Cytotoxicity activity IC50 (50% inhibition of cell proliferation)
Method: as §1

MCF7 (breast) = test: In vitro cytotoxic activity assay (MTT), MCF7; details: Homo sapiens; MCF7 (breast) cells, exposed for 96 hours; read-out: Cytotoxicity activity IC50 (50% inhibition of cell proliferation)
Method: as §1

H1299 (lung) = test: In vitro cytotoxic activity assay (MTT), H1299; details: Homo sapiens, NCI-H1299; H1299 (lung) cells, exposed for 96 hours; read-out: Cytotoxicity activity IC50 (50% inhibition of cell proliferation)
Method: as §1

HL60 (leukemia) = test: In vitro cytotoxic activity assay (MTT), HL60; details: Homo sapiens, HL-60; HL60 (leukemia) cells, exposed for 96 hours; read-out: Cytotoxicity activity IC50 (50% inhibition of cell proliferation)
Method: as §1

O=C(O)c1ccc2c(c1)nc(Nc1cccc(Cl)c1)c1ccncc12 [CX-4945, reference compound]
IC50 (HCT116 (colon)): 2300 nM | IC50 (PC3 (prostate)): 2000 nM | IC50 (MIAPaCa-2 (pancreas)): 1000 nM | IC50 (A375 (melanoma)): 4100 nM | IC50 (MDA-MB-231 (breast)): 6200 nM | IC50 (MCF7 (breast)): 9100 nM | IC50 (H1299 (lung)): 2300 nM | IC50 (HL60 (leukemia)): 3700 nM
